Results are given in words; binding and its absence hold for the method and conditions named. In cells and extracts the contact can be indirect. Some results given as binding are weak or reduced against the parent protein; the word gives no strength.
How the values were obtained:
[1] = target: GCG in mouse serum (mouse) (UniProt P55095); assay: co-immunoprecipitation from mouse serum (IP: GP73, IB: Glucagon and IB: GP73), fasting 0-72 h, with input lanes; no control-IgG lane shown
[2] = target: GCG in mouse serum (mouse) (UniProt P55095); assay: co-immunoprecipitation from mouse serum (FIG. 4E)
[3] = target: GCG in mouse serum (mouse) (UniProt P55095); assay: co-immunoprecipitation from serum of fasted C57BL/6N mice, western blot

Sequences of proteins named here, by UniProt entry; tags and fusion partners are left off. Residues count along the entry.
UniProt P55095, residues 53-81: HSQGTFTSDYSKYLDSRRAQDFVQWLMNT

- binding [1]: binds
- binding [2]: binds
- binding [3]: binds
B1: soluble GP73 in mouse serum (protein, UniProt Q91XA2 56-393, looked up)
chain: AAAERGAVELKKNEFQGELQKQREQLDRIQSSHSFQLENVNKLHQDEKAVLVNNITTGEKLIRDLQDQLKALQRSYSSLQQDIFQFQKNQTSLEKKFSYDLNQCISQMTEVKEQCDERIEEVIRKRNEAPGSRDLAETNNQHQQALKPQPKLQEEVPSEEQMPQEKGDVPRNKSQIPAPNSESLGLKPQVQNEETNEIQAVGEEHQQASIQGQAVADGTRVGAEKLDQHTQLPAGLLARPEEDSQYPEREQLVIRDRQEQQRASEEGGGQKNPGDEYDMDENEAESEREKQAALAGNDRNINVLNADAQKRGIINVPVGSERQSHILNQVGIHIPQQA
